# Assay results as given in the supplement of paper PMC8728848.
# The list shows a part of the results.
# B1: OS9 (Arabidopsis thaliana) (protein)
# chain: MRGSHHHHHHGMASMTGGQQMGRDLYDDDDKSRLQIFPAHLVGTFSRNNREPKYKIEFLPEDSPFHPGDNLESMVMLDKHGNRFLCYLPKEEKATSGWTSSQQNISTVMMETQQLVKLKTPDELLQPLSEKCLFRQEGWWSYEFCHQKYVRQLHVEDENKIVQEFFLGTFDPEATAAFNQTVSDASTDASQRYHSHVYTNGTTCDLTGSPREVEVRFVCAETRAMVTSITELSTCKYALTVQCPTLCKHPLFQLEKPVSHTIHCNAIPVEEDATRNKEEQAVDESPKMIADS
# Tests used:
# Assay in all cases: glycan array binding signal (z-score within array); higher = stronger binding
# Conditions in all cases: glycan notation: IUPAC condensed, linker removed
# [1] = target: Gal(b1-4)GlcNAc(b1-3)Gal(b1-4)GlcNAc(b1-3)Gal(b1-4)GlcNAc(b1-3)Gal(b1-4)GlcNAc(b1-2)Man(a1-3)[Gal(b1-4)GlcNAc(b1-3)Gal(b1-4)GlcNAc(b1-3)Gal(b1-4)GlcNAc(b1-3)Gal(b1-4)GlcNAc(b1-2)Man(a1-6)]Man(b1-4)GlcNAc(b1-4)[Fuc(a1-6)]GlcNAc
# How it was run: (§1)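 Glycan array binding is given as a within-array Z-score, which can be read as non-binding when negative. The arrays, 3228 of them, came from the Consortium for Functional Glycomics database and were retained only where the protein sequence was available. Z-scores were averaged across arrays of the same protein sequence at different concentrations or buffers and across linkers.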
# [2] = target: Gal(b1-4)GlcNAc(b1-3)Gal(b1-4)GlcNAc(b1-3)Gal(b1-4)GlcNAc(b1-3)Gal(b1-4)GlcNAc(b1-2)[Gal(b1-4)GlcNAc(b1-3)Gal(b1-4)GlcNAc(b1-3)Gal(b1-4)GlcNAc(b1-3)Gal(b1-4)GlcNAc(b1-6)]Man(a1-6)[Gal(b1-4)GlcNAc(b1-3)Gal(b1-4)GlcNAc(b1-3)Gal(b1-4)GlcNAc(b1-3)Gal(b1-4)GlcNAc(b1-2)Man(a1-3)]Man(b1-4)GlcNAc(b1-4)[Fuc(a1-6)]GlcNAc
# How it was run: as §1
# [3] = target: Gal(b1-4)GlcNAc(b1-3)Gal(b1-4)GlcNAc(b1-3)Gal(b1-4)GlcNAc(b1-3)Gal(b1-4)GlcNAc(b1-3)Gal(b1-4)GlcNAc(b1-2)Man(a1-3)[Gal(b1-4)GlcNAc(b1-3)Gal(b1-4)GlcNAc(b1-3)Gal(b1-4)GlcNAc(b1-3)Gal(b1-4)GlcNAc(b1-3)Gal(b1-4)GlcNAc(b1-2)Man(a1-6)]Man(b1-4)GlcNAc(b1-4)GlcNAc
# How it was run: as §1
# [4] = target: Gal(b1-4)GlcNAc(b1-3)Gal(b1-4)GlcNAc(b1-3)Gal(b1-4)GlcNAc(b1-3)Gal(b1-4)GlcNAc(b1-3)Gal(b1-4)GlcNAc(b1-2)Man(a1-3)[Gal(b1-4)GlcNAc(b1-3)Gal(b1-4)GlcNAc(b1-3)Gal(b1-4)GlcNAc(b1-3)Gal(b1-4)GlcNAc(b1-3)Gal(b1-4)GlcNAc(b1-2)Man(a1-6)]Man(b1-4)GlcNAc(b1-4)[Fuc(a1-6)]GlcNAc
# How it was run: as §1
# [5] = target: Gal(b1-4)GlcNAc(b1-3)Gal(b1-4)GlcNAc(b1-3)Gal(b1-4)GlcNAc(b1-3)Gal(b1-4)GlcNAc(b1-3)Gal(b1-4)GlcNAc(b1-2)[Gal(b1-4)GlcNAc(b1-3)Gal(b1-4)GlcNAc(b1-3)Gal(b1-4)GlcNAc(b1-3)Gal(b1-4)GlcNAc(b1-3)Gal(b1-4)GlcNAc(b1-6)]Man(a1-6)[Gal(b1-4)GlcNAc(b1-3)Gal(b1-4)GlcNAc(b1-3)Gal(b1-4)GlcNAc(b1-3)Gal(b1-4)GlcNAc(b1-3)Gal(b1-4)GlcNAc(b1-2)Man(a1-3)]Man(b1-4)GlcNAc(b1-4)[Fuc(a1-6)]GlcNAc
# How it was run: as §1
# [6] = target: Gal(b1-4)GlcNAc(b1-3)Gal(b1-4)GlcNAc(b1-3)Gal(b1-4)GlcNAc(b1-3)Gal(b1-4)GlcNAc(b1-3)Gal(b1-4)GlcNAc(b1-3)Gal(b1-4)GlcNAc(b1-2)Man(a1-3)[Gal(b1-4)GlcNAc(b1-3)Gal(b1-4)GlcNAc(b1-3)Gal(b1-4)GlcNAc(b1-3)Gal(b1-4)GlcNAc(b1-3)Gal(b1-4)GlcNAc(b1-3)Gal(b1-4)GlcNAc(b1-2)Man(a1-6)]Man(b1-4)GlcNAc(b1-4)GlcNAc
# How it was run: as §1
# [7] = target: Gal(b1-4)GlcNAc(b1-3)Gal(b1-4)GlcNAc(b1-3)GalNAc
# How it was run: as §1
# [8] = target: Gal(b1-4)GlcNAc(b1-3)Gal(b1-4)GlcNAc(b1-3)[Gal(b1-4)GlcNAc(b1-3)Gal(b1-4)GlcNAc(b1-6)]GalNAc
# How it was run: as §1
# [9] = target: Gal(b1-4)GlcNAc(b1-3)Gal(b1-4)GlcNAc(b1-6)[Gal(b1-3)]GalNAc
# How it was run: as §1
# [10] = target: Gal(b1-4)GlcNAc(b1-3)Gal(b1-4)[Fuc(a1-3)]GlcNAc(b1-3)Gal(b1-4)[Fuc(a1-3)]GlcNAc
# How it was run: as §1
# [11] = target: Gal(b1-4)GlcNAc(b1-3)GalNAc
# How it was run: as §1
# [12] = target: Gal(b1-4)GlcNAc(b1-3)[Fuc(a1-3)GlcNAc(b1-6)]Gal(b1-4)Glc
# How it was run: as §1
# [13] = target: Gal(b1-4)GlcNAc(b1-3)[Gal(b1-4)GlcNAc(b1-6)]Gal(b1-4)GlcNAc
# How it was run: as §1
# [14] = target: Gal(b1-4)GlcNAc(b1-3)[GlcNAc(b1-6)]Gal(b1-4)GlcNAc
# How it was run: as §1
# [15] = target: Gal(b1-4)GlcNAc(b1-6)Gal(b1-4)GlcNAc
# How it was run: as §1
# [16] = target: Gal(b1-4)GlcNAc(b1-6)GalNAc
# How it was run: as §1
# [17] = target: Gal(b1-4)GlcNAc(b1-6)[Gal(b1-3)]GalNAc
# How it was run: as §1
# [18] = target: Gal(b1-4)GlcNAc(b1-6)[Gal(b1-4)GlcNAc(b1-3)]GalNAc
# How it was run: as §1
# [19] = target: Gal(b1-4)GlcNAc6P
# How it was run: as §1
# [20] = target: Gal(b1-6)Gal
# How it was run: as §1
# [21] = target: Gal3S(b1-3)GalNAc
# How it was run: as §1
# [22] = target: Gal3S(b1-3)GlcNAc
# How it was run: as §1
# [23] = target: Gal3S(b1-3)[Fuc(a1-4)]GlcNAc
# How it was run: as §1
# [24] = target: Gal3S(b1-4)Glc
# How it was run: as §1
# [25] = target: Gal3S(b1-4)Glc6S
# How it was run: as §1
# [26] = target: Gal3S(b1-4)GlcNAc
# How it was run: as §1
# [27] = target: Gal3S(b1-4)[Fuc(a1-3)]Glc6S
# How it was run: as §1
# [28] = target: Gal3S(b1-4)[Fuc(a1-3)]GlcNAc
# How it was run: as §1
# [29] = target: Gal3S(b1-4)[Fuc(a1-3)]GlcNAc6S
# How it was run: as §1
# [30] = target: Gal3S4S(b1-4)GlcNAc
# How it was run: as §1
# [31] = target: Gal3S6S(b1-4)GlcNAc
# How it was run: as §1
# [32] = target: Gal3S6S(b1-4)GlcNAc6S
# How it was run: as §1
# [33] = target: Gal4S(b1-4)GlcNAc
# How it was run: as §1
# [34] = target: Gal4S6S(b1-4)GlcNAc
# How it was run: as §1
# [35] = target: Gal6P(b1-4)GlcNAc
# How it was run: as §1
# [36] = target: Gal6S(b1-3)GlcNAc
# How it was run: as §1
# [37] = target: Gal6S(b1-3)GlcNAc6S
# How it was run: as §1
# [38] = target: Gal6S(b1-4)Glc
# How it was run: as §1
binder,measurement,setting,value
B1,glycan array binding signal (z-score),[1],0.515
same,glycan array binding signal (z-score),[2],-0.643
same,glycan array binding signal (z-score),[3],-0.299
same,glycan array binding signal (z-score),[4],1.27
same,glycan array binding signal (z-score),[5],-0.551
same,glycan array binding signal (z-score),[6],0.798
same,glycan array binding signal (z-score),[7],0.571
same,glycan array binding signal (z-score),[8],1.24
same,glycan array binding signal (z-score),[9],0.462
same,glycan array binding signal (z-score),[10],-0.745
same,glycan array binding signal (z-score),[11],-0.217
same,glycan array binding signal (z-score),[12],-0.391
same,glycan array binding signal (z-score),[13],1.43
same,glycan array binding signal (z-score),[14],0.468
same,glycan array binding signal (z-score),[15],-0.595
same,glycan array binding signal (z-score),[16],-0.314
same,glycan array binding signal (z-score),[17],-0.191
same,glycan array binding signal (z-score),[18],-0.154
same,glycan array binding signal (z-score),[19],-0.486
same,glycan array binding signal (z-score),[20],-0.669
same,glycan array binding signal (z-score),[21],-0.498
same,glycan array binding signal (z-score),[22],-0.226
same,glycan array binding signal (z-score),[23],-0.48
same,glycan array binding signal (z-score),[24],0.638
same,glycan array binding signal (z-score),[25],0.366
same,glycan array binding signal (z-score),[26],0.259
same,glycan array binding signal (z-score),[27],0.692
same,glycan array binding signal (z-score),[28],0.663
same,glycan array binding signal (z-score),[29],-0.255
same,glycan array binding signal (z-score),[30],0.916
same,glycan array binding signal (z-score),[31],-0.744
same,glycan array binding signal (z-score),[32],1.93
same,glycan array binding signal (z-score),[33],-0.85
same,glycan array binding signal (z-score),[34],-0.425
same,glycan array binding signal (z-score),[35],-0.696
same,glycan array binding signal (z-score),[36],-0.382
same,glycan array binding signal (z-score),[37],-0.07
same,glycan array binding signal (z-score),[38],-0.399

# Part of the list above, bar-delimited.
binder | measurement | setting | value
B1 | glycan array binding signal (z-score) | [1] | 0.515
same | glycan array binding signal (z-score) | [6] | 0.798
same | glycan array binding signal (z-score) | [9] | 0.462
same | glycan array binding signal (z-score) | [10] | -0.745
same | glycan array binding signal (z-score) | [13] | 1.43
same | glycan array binding signal (z-score) | [18] | -0.154
same | glycan array binding signal (z-score) | [20] | -0.669
same | glycan array binding signal (z-score) | [26] | 0.259
same | glycan array binding signal (z-score) | [30] | 0.916
same | glycan array binding signal (z-score) | [34] | -0.425
